In assay [1] the target is Pseudomonas syringae pv. tomato DC3000 effector HopP1, Gal4BD-tagged (Pseudomonas syringae pv. tomato DC3000) (UniProt Q882F0). The assay can be described thus: two-hybrid; AH109 yeast co-transformed with Gal4-DB effector baits (pDEST-DB) and Gal4-AD Arabidopsis preys (pDEST22); growth on -LWH against -LW plates, 30 C, three days; pairwise screen and dilution series.
Assay [2] has as its target T1, Pseudomonas syringae pv. tomato DC3000 effector HopK1, Gal4BD-tagged (Pseudomonas syringae pv. tomato DC3000) (UniProt Q88BH0).
T1 sequence: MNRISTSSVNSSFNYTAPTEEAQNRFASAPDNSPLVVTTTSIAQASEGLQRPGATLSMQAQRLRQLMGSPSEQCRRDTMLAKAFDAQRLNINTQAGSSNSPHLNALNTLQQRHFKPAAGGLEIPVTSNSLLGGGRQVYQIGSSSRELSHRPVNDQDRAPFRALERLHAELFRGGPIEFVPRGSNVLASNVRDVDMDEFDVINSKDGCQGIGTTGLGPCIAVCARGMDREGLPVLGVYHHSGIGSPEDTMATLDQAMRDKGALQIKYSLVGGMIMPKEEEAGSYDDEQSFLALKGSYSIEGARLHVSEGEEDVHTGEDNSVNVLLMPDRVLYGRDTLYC
The assay is described as above.

No constants are given. Whether binding was seen depends on the method and setting. Where a sequence is shown, tags or fusion partners need not be part of it.

B1: CONSTITUTIVE ACTIVE DEFENSE 1 (CAD1), Gal4AD-tagged (protein, UniProt Q9C7N2 1-561)
chain: MENRKGGNFSVPSSEALTTTLRNAIQALGRGFDVTSDVRLLYCKGAPGSRLVRIEEGQNRDLELSHGFLLPNVPADIDCSRGNSGTQRISVCSFHEMAEEFNVRSGVKGNIPLGCFNAMFNYTGSWQVDAASTKSLALVGYFIPLYDVKLAKLTLVLHNEIRRAVPSSWDPASLASFIENYGTHIVTSVTIGGRDVVYIRQHQSSPLPVSEIENYVNDMIKHRFHEAESQSITGPLKYKDKDITVIFRRRGGDDLEQSHARWAETVPAAPDIINMTFTPIVSLLEGVPGLRHLTRAIELYLEYKPPIEDLQYFLDYQIARAWAPEQSNLQRKEPVCSSLQFSLMGPKLFISADQVTVGRKPVTGLRLSLEGSKQNRLSIHLQHLVSLPKILQPHWDSHVPIGAPKWQGPEEQDSRWFEPIKWKNFSHVSTSPIEHTETHIGDLSGVHIVTGAQLGVWDFGSKNVLHLKLLFSKVPGCTIRRSVWDHTPVASSGRLEPGGPSTSSSTEEVSGQSGKLAKIVDSSEMLKGPQDLPGHWLVTGAKLGVEKGKIVLRVKYSLLNY
In the case of B1, the binding entry in assay [1] and in assay [2] was “no binding” in each case.

B2: NECROTIC SPOTTED LESIONS 1 (NSL1), Gal4AD-tagged (protein, UniProt Q9SGN6 1-612)
chain: MAFNNFTRLDAHSAAEKAVSVIGLGYDLCSDVRFSACKTTPDGSRLVEIDPTRNRDLIFPGGIVVNNVSSSIKCDKGERTRLRSDILSFNQMSEKFNQDMCLSGKIPSGMFNNMFAFSKCWPKDASSVKTLAYDGWFISLYSVEIVRKQLTLRDEVKREVPSSWDSAALAGFIEKYGTHVVVGVTMGGKDVIHVKQMRKSNHEPEEIQKMLKHWGDERFCVDPVESKSPASVYSGKPKEENLLQWGLQPFGTSVSSAVVMHTKNEEIMRVCIRRGGVDLGQSHERWLSTVSQAPNVISMCFVPITSLLSGLPGTGFLSHAVNLYLRYKPPIEELHQFLEFQLPRQWAPVYGDLPLGLRRSKQSSPSLQFSLMGPKLYVNTSKVDSGERPVTGLRFFLEGKKGNHLAIHLQHLSACPPSLHLSHDDTYEPIEEPVEKGYYVPVKWGIFSHVCTYPVQYNGARSDDTASIVTKAWLEVKGMGMRKVLFLRLGFSLDASAVTRKSCWDNLSTNSRKSGVFSMISTRLSTGLSPNPATTKPQSKIDINSAVYPRGPSPPVKPKLLSLVDTKEVMRGPEEQPGYWVVTGAKLCVEAGKISIKAKYSLLTVISEDSLV
For B2, the binding result in assay [1] and in assay [2] was “no binding” each time.

(Values after paper PMC11461026.)
